# Results as given in the supplement of paper PMC8728848.
# The list shows a part of the results.
# B1: OS9 (Arabidopsis thaliana) (protein)
# chain: MRGSHHHHHHGMASMTGGQQMGRDLYDDDDKSRLQIFPAHLVGTFSRNNREPKYKIEFLPEDSPFHPGDNLESMVMLDKHGNRFLCYLPKEEKATSGWTSSQQNISTVMMETQQLVKLKTPDELLQPLSEKCLFRQEGWWSYEFCHQKYVRQLHVEDENKIVQEFFLGTFDPEATAAFNQTVSDASTDASQRYHSHVYTNGTTCDLTGSPREVEVRFVCAETRAMVTSITELSTCKYALTVQCPTLCKHPLFQLEKPVSHTIHCNAIPVEEDATRNKEEQAVDESPKMIADS
# Experiments:
# Test in all cases: glycan array binding signal (z-score within array); higher = stronger binding
# Conditions in all cases: glycan notation: IUPAC condensed, linker removed
# [1] = biological target: Neu5Ac(a2-3)Gal(b1-4)GlcNAc(b1-6)GalNAc
# Procedure, shortened: (§1)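 Glycan array data came from 3228 arrays in the Consortium for Functional Glycomics database, and only arrays with an available protein sequence were kept. Glycan names were put into IUPAC-condensed notation, and columns mapping to the same glycan were averaged. The binding signal is a within-array Z-score, averaged across arrays of one protein sequence run at different concentrations or buffers and across linkers. A negative Z-score can be read as non-binding.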
# [2] = biological target: Neu5Ac(a2-3)Gal(b1-4)GlcNAc(b1-6)[Gal(b1-3)]GalNAc
# Procedure, shortened: as §1
# [3] = biological target: Neu5Ac(a2-3)Gal(b1-4)GlcNAc(b1-6)[Neu5Ac(a2-3)Gal(b1-3)]GalNAc
# Procedure, shortened: as §1
# [4] = biological target: Neu5Ac(a2-3)Gal(b1-4)GlcNAc6S
# Procedure, shortened: as §1
# [5] = biological target: Neu5Ac(a2-3)Gal(b1-4)[Fuc(a1-3)]GlcNAc
# Procedure, shortened: as §1
# [6] = biological target: Neu5Ac(a2-3)Gal(b1-4)[Fuc(a1-3)]GlcNAc(b1-2)Man
# Procedure, shortened: as §1
# [7] = biological target: Neu5Ac(a2-3)Gal(b1-4)[Fuc(a1-3)]GlcNAc(b1-3)Gal
# Procedure, shortened: as §1
# [8] = biological target: Neu5Ac(a2-3)Gal(b1-4)[Fuc(a1-3)]GlcNAc(b1-3)Gal(b1-4)GlcNAc
# Procedure, shortened: as §1
# [9] = biological target: Neu5Ac(a2-3)Gal(b1-4)[Fuc(a1-3)]GlcNAc(b1-3)Gal(b1-4)[Fuc(a1-3)]GlcNAc(b1-3)Gal(b1-4)[Fuc(a1-3)]GlcNAc
# Procedure, shortened: as §1
# [10] = biological target: Neu5Ac(a2-3)Gal(b1-4)[Fuc(a1-3)]GlcNAc(b1-3)GalNAc
# Procedure, shortened: as §1
# [11] = biological target: Neu5Ac(a2-3)Gal(b1-4)[Fuc(a1-3)]GlcNAc(b1-6)[Gal(b1-3)]GalNAc
# Procedure, shortened: as §1
# [12] = biological target: Neu5Ac(a2-3)Gal(b1-4)[Fuc(a1-3)]GlcNAc(b1-6)[Neu5Ac(a2-3)Gal(b1-3)]GalNAc
# Procedure, shortened: as §1
# [13] = biological target: Neu5Ac(a2-3)Gal(b1-4)[Fuc(a1-3)]GlcNAc6S
# Procedure, shortened: as §1
# [14] = biological target: Neu5Ac(a2-3)Gal6S(b1-4)GlcNAc
# Procedure, shortened: as §1
# [15] = biological target: Neu5Ac(a2-3)Gal6S(b1-4)[Fuc(a1-3)]GlcNAc
# Procedure, shortened: as §1
# [16] = biological target: Neu5Ac(a2-3)GalNAc
# Procedure, shortened: as §1
# [17] = biological target: Neu5Ac(a2-3)GalNAc(b1-4)GlcNAc
# Procedure, shortened: as §1
# [18] = biological target: Neu5Ac(a2-3)[GalNAc(b1-4)]Gal(b1-4)Glc
# Procedure, shortened: as §1
# [19] = biological target: Neu5Ac(a2-3)[GalNAc(b1-4)]Gal(b1-4)GlcNAc
# Procedure, shortened: as §1
# [20] = biological target: Neu5Ac(a2-3)[GalNAc(b1-4)]Gal(b1-4)GlcNAc(b1-3)GalNAc
# Procedure, shortened: as §1
# [21] = biological target: Neu5Ac(a2-3)[Neu5Ac(a2-6)]GalNAc
# Procedure, shortened: as §1
# [22] = biological target: Neu5Ac(a2-6)Gal
# Procedure, shortened: as §1
# [23] = biological target: Neu5Ac(a2-6)Gal(b1-3)GlcNAc(b1-3)[Gal(b1-4)GlcNAc(b1-6)]Gal(b1-4)Glc
# Procedure, shortened: as §1
# [24] = biological target: Neu5Ac(a2-6)Gal(b1-4)Glc
# Procedure, shortened: as §1
# [25] = biological target: Neu5Ac(a2-6)Gal(b1-4)GlcNAc
# Procedure, shortened: as §1
# [26] = biological target: Neu5Ac(a2-6)Gal(b1-4)GlcNAc(b1-2)Man
# Procedure, shortened: as §1
# [27] = biological target: Neu5Ac(a2-6)Gal(b1-4)GlcNAc(b1-2)Man(a1-3)Man(b1-4)GlcNAc(b1-4)GlcNAc
# Procedure, shortened: as §1
# [28] = biological target: Neu5Ac(a2-6)Gal(b1-4)GlcNAc(b1-2)Man(a1-3)[Gal(b1-4)GlcNAc(b1-2)Man(a1-6)]Man(b1-4)GlcNAc(b1-4)GlcNAc
# Procedure, shortened: as §1
# [29] = biological target: Neu5Ac(a2-6)Gal(b1-4)GlcNAc(b1-2)Man(a1-3)[GlcNAc(b1-4)][Neu5Ac(a2-6)Gal(b1-4)GlcNAc(b1-2)Man(a1-6)]Man(b1-4)GlcNAc(b1-4)GlcNAc
# Procedure, shortened: as §1
# [30] = biological target: Neu5Ac(a2-6)Gal(b1-4)GlcNAc(b1-2)Man(a1-3)[Man(a1-6)]Man(b1-4)GlcNAc(b1-4)GlcNAc
# Procedure, shortened: as §1
# [31] = biological target: Neu5Ac(a2-6)Gal(b1-4)GlcNAc(b1-2)Man(a1-3)[Neu5Ac(a2-3)Gal(b1-4)GlcNAc(b1-2)Man(a1-6)]Man(b1-4)GlcNAc(b1-4)GlcNAc
# Procedure, shortened: as §1
# [32] = biological target: Neu5Ac(a2-6)Gal(b1-4)GlcNAc(b1-2)Man(a1-3)[Neu5Ac(a2-6)Gal(b1-4)GlcNAc(b1-2)Man(a1-6)]Man(b1-4)GlcNAc(b1-4)GlcNAc
# Procedure, shortened: as §1
# [33] = biological target: Neu5Ac(a2-6)Gal(b1-4)GlcNAc(b1-2)Man(a1-3)[Neu5Ac(a2-6)Gal(b1-4)GlcNAc(b1-2)Man(a1-6)]Man(b1-4)GlcNAc(b1-4)[Fuc(a1-6)]GlcNAc
# Procedure, shortened: as §1
# [34] = biological target: Neu5Ac(a2-6)Gal(b1-4)GlcNAc(b1-2)Man(a1-6)Man(b1-4)GlcNAc(b1-4)GlcNAc
# Procedure, shortened: as §1
# [35] = biological target: Neu5Ac(a2-6)Gal(b1-4)GlcNAc(b1-2)Man(a1-6)[Gal(b1-4)GlcNAc(b1-2)Man(a1-3)]Man(b1-4)GlcNAc(b1-4)GlcNAc
# Procedure, shortened: as §1
# [36] = biological target: Neu5Ac(a2-6)Gal(b1-4)GlcNAc(b1-2)Man(a1-6)[GlcNAc(b1-2)Man(a1-3)]Man(b1-4)GlcNAc(b1-4)GlcNAc
# Procedure, shortened: as §1
# [37] = biological target: Neu5Ac(a2-6)Gal(b1-4)GlcNAc(b1-2)Man(a1-6)[Man(a1-3)]Man(b1-4)GlcNAc(b1-4)GlcNAc
# Procedure, shortened: as §1
# [38] = biological target: Neu5Ac(a2-6)Gal(b1-4)GlcNAc(b1-2)[Neu5Ac(a2-6)Gal(b1-4)GlcNAc(b1-4)]Man(a1-3)[GlcNAc(b1-4)][Neu5Ac(a2-6)Gal(b1-4)GlcNAc(b1-2)[Neu5Ac(a2-6)Gal(b1-4)GlcNAc(b1-6)]Man(a1-6)]Man(b1-4)GlcNAc(b1-4)GlcNAc
# Procedure, shortened: as §1
# [39] = biological target: Neu5Ac(a2-6)Gal(b1-4)GlcNAc(b1-2)[Neu5Ac(a2-6)Gal(b1-4)GlcNAc(b1-4)]Man(a1-3)[GlcNAc(b1-4)][Neu5Ac(a2-6)Gal(b1-4)GlcNAc(b1-4)Man(a1-6)]Man(b1-4)GlcNAc(b1-4)GlcNAc
# Procedure, shortened: as §1
# [40] = biological target: Neu5Ac(a2-6)Gal(b1-4)GlcNAc(b1-2)[Neu5Ac(a2-6)Gal(b1-4)GlcNAc(b1-6)]Man(a1-6)[Neu5Ac(a2-6)Gal(b1-4)GlcNAc(b1-2)Man(a1-3)][GlcNAc(b1-4)]Man(b1-4)GlcNAc(b1-4)GlcNAc
# Procedure, shortened: as §1
# [41] = biological target: Neu5Ac(a2-6)Gal(b1-4)GlcNAc(b1-3)Gal(b1-3)GlcNAc
# Procedure, shortened: as §1
# [42] = biological target: Neu5Ac(a2-6)Gal(b1-4)GlcNAc(b1-3)Gal(b1-4)GlcNAc
# Procedure, shortened: as §1
# [43] = biological target: Neu5Ac(a2-6)Gal(b1-4)GlcNAc(b1-3)Gal(b1-4)GlcNAc(b1-2)Man(a1-3)[Neu5Ac(a2-6)Gal(b1-4)GlcNAc(b1-3)Gal(b1-4)GlcNAc(b1-2)Man(a1-6)]GalNAc
# Procedure, shortened: as §1
# [44] = biological target: Neu5Ac(a2-6)Gal(b1-4)GlcNAc(b1-3)Gal(b1-4)GlcNAc(b1-3)Gal(b1-4)GlcNAc
# Procedure, shortened: as §1
# [45] = biological target: Neu5Ac(a2-6)Gal(b1-4)GlcNAc(b1-3)Gal(b1-4)GlcNAc(b1-3)Gal(b1-4)GlcNAc(b1-2)Man(a1-3)[Neu5Ac(a2-6)Gal(b1-4)GlcNAc(b1-3)Gal(b1-4)GlcNAc(b1-3)Gal(b1-4)GlcNAc(b1-2)Man(a1-6)]GalNAc
# Procedure, shortened: as §1
binder,measurement,setting,value
B1,glycan array binding signal (z-score),[1],-0.883
same,glycan array binding signal (z-score),[2],-0.157
same,glycan array binding signal (z-score),[3],-0.353
same,glycan array binding signal (z-score),[4],-0.226
same,glycan array binding signal (z-score),[5],-0.32
same,glycan array binding signal (z-score),[6],0.868
same,glycan array binding signal (z-score),[7],-0.346
same,glycan array binding signal (z-score),[8],-0.726
same,glycan array binding signal (z-score),[9],0.045
same,glycan array binding signal (z-score),[10],0.633
same,glycan array binding signal (z-score),[11],-0.673
same,glycan array binding signal (z-score),[12],-0.269
same,glycan array binding signal (z-score),[13],2.52
same,glycan array binding signal (z-score),[14],-0.966
same,glycan array binding signal (z-score),[15],-0.413
same,glycan array binding signal (z-score),[16],0.064
same,glycan array binding signal (z-score),[17],-0.344
same,glycan array binding signal (z-score),[18],-0.249
same,glycan array binding signal (z-score),[19],-0.562
same,glycan array binding signal (z-score),[20],-0.75
same,glycan array binding signal (z-score),[21],0.459
same,glycan array binding signal (z-score),[22],-1.06
same,glycan array binding signal (z-score),[23],-0.523
same,glycan array binding signal (z-score),[24],-0.102
same,glycan array binding signal (z-score),[25],-0.55
same,glycan array binding signal (z-score),[26],-0.824
same,glycan array binding signal (z-score),[27],6.74
same,glycan array binding signal (z-score),[28],-0.814
same,glycan array binding signal (z-score),[29],-0.429
same,glycan array binding signal (z-score),[30],-0.737
same,glycan array binding signal (z-score),[31],-0.742
same,glycan array binding signal (z-score),[32],-0.5
same,glycan array binding signal (z-score),[33],0.382
same,glycan array binding signal (z-score),[34],-0.276
same,glycan array binding signal (z-score),[35],-0.208
same,glycan array binding signal (z-score),[36],-0.096
same,glycan array binding signal (z-score),[37],-0.057
same,glycan array binding signal (z-score),[38],-0.275
same,glycan array binding signal (z-score),[39],-0.592
same,glycan array binding signal (z-score),[40],0.585
same,glycan array binding signal (z-score),[41],0.786
same,glycan array binding signal (z-score),[42],-0.376
same,glycan array binding signal (z-score),[43],-0.47
same,glycan array binding signal (z-score),[44],-1.18
same,glycan array binding signal (z-score),[45],-0.41

# Quoted at random: 2 entries already listed
binder,measurement,setting,value
B1,glycan array binding signal (z-score),[44],-1.18
same,glycan array binding signal (z-score),[37],-0.057
